pKd: −log10 of the molar value. At least one structure is not confirmed: it was looked up by name or label, or the drawing left a doubt. Bridge positions count the residues as written; N and C are the ends. Peptide text beside a SMILES is read from it.
These compounds were tested against GRP78-NBD (assay: Binding to GRP78-NBD Kd (μM)).
Text: Table printed on a drawing sheet, FIG. 5B
Head of the field: Binding to GRP78-NBD Kd (μM)
GRP78-NBD is shown in a translucent surface model along with its cartoon trace. The Cys-Cys bond in compound 12 (SEQ ID NO: 12) is shown in sticks.
The binding affinities are obtained by a microscale thermophoresis-based cell-free assay.
GSK2606414 was used to inhibit PERK signaling and KIRA6 to inhibit IRE1alpha signaling. * p<0.05, ** p<0.01, *** p<0.001, **** p<0.0001 one-way ANOVA is test with post-hoc Fisher's LSD test for pairwise comparison vs MPP+ negative control. # p<0.05, ## p<0.01, ### p<0.001, #### p<0.0001 one-way ANOVA test with post-hoc Fisher's LSD test for pairwise comparison between effect of compound alone and its combination with UPR signal inhibitor.
Where the first naming reader finds the target: head: Binding to GRP78-NBD Kd (μM)

Compared with `CC[C@H](C)[C@@H]1NC(=O)[C@H](CCCCN)NC(=O)[C@H](CCCCN)NC(=O)[C@H](CC(C)C)NC(=O)[C@H](CCC(=O)O)NC(=O)[C@H](CCCCN)NC(=O)[C@H](C(C)C)NC(=O)[C@H](CCCNC(=N)N)NC(=O)[C@H](CC(C)C)NC(=O)[C@H](CCCCN)NC(=O)[C@H](CCCCN)NC(=O)[C@H](CC(C)C)NC(=O)[C@H](CC(=O)O)NC(=O)[C@H](C(C)C)NC(=O)[C@H](CCC(=O)O)NC(=O)[C@H](C)NC(=O)[C@@H]2CSSC[C@H](NC(=O)[C@H]([C@@H](C)O)NC(=O)[C@H](CCC(=O)O)NC(=O)CNC(=O)[C@H](Cc3c[nH]c4ccccc34)NC(=O)[C@H](CC(=O)O)NC(=O)[C@H](CC(=O)O)NC(=O)[C@H](CC(C)C)NC1=O)C(=O)N[C@@H](CCCCN)C(=O)NCC(=O)N2` [Compound 4, 27 aa, cyclic] (cyclo(AEVDLKKLRVKELKKILDDWGETCKGC); disulfide 24-27), `CC[C@H](C)[C@@H]1NC(=O)[C@H](CO)NC(=O)[C@H](CCCCN)NC(=O)[C@H](CCC(=O)O)NC(=O)[C@H](C)NC(=O)[C@@H]2CSSC[C@H](NC(=O)[C@H]([C@@H](C)O)NC(=O)[C@H](CCC(=O)O)NC(=O)CNC(=O)[C@H](Cc3c[nH]c4ccccc34)NC(=O)[C@H](CC(=O)O)NC(=O)[C@H](CC(=O)O)NC(=O)[C@H](CC(C)C)NC1=O)C(=O)N[C@@H](CCCCN)C(=O)NCC(=O)N2` [Compound 10, 16 aa, cyclic] (cyclo(AEKSILDDWGETCKGC); disulfide 13-16) is 1.40 log units higher in pKd: 4.81 for the first, 6.21 for the second. The second binds more tightly here.

Work on `C[C@@H]1NC(=O)[C@@H]2CSSC[C@H](NC(=O)[C@H]([C@@H](C)O)NC(=O)[C@H](CCC(=O)O)NC(=O)CNC(=O)[C@H](Cc3c[nH]c4ccccc34)NC(=O)[C@H](CO)NC(=O)[C@H](CCCCN)NC(=O)[C@H](CCC(=O)O)NC1=O)C(=O)N[C@@H](CCCCN)C(=O)NCC(=O)NCC(=O)N2` [Compound 26, 13 aa, cyclic] (cyclo(AEKSWGETCKGGC); disulfide 9-13) yielded a pKd of 4.97.

— US20230391841A1, “MACROCYCLIC PEPTIDES” (Herantis Pharma OYJ, priority 2019, published 2023)
